The text below walks through data of PubChem BioAssay AID1508600 (Functional Genomics Laboratory (NCATS/FGL), 2020).

About 3,700 (7%) of roughly 53,000 sequences were called active.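 Rule for the calls: active = gene knockdowns whose robust z-score for IL-1 alpha signal is at least 2 or at most -2, so actives lie on both sides; inactive = the rest.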 The list shows a part of the results.

This experiment can be described thus: Components of the Cytosolic LPS Sensing Pathway: Gene Identification via Genome-wide siRNA Screen.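 Note: robust z of the log signal after scaling to non-targeting control siRNA wells of the plate.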 Particulars: RAW264.7 macrophages, IL-1a HTRF, actives lie on both sides, screened at 100 nM (by protocol), cells primed 5 h with Pam3CSK4 first. The method, boiled down: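 Three distinct siRNAs per gene were tested singly at 100 nM in RAW264.7 macrophages. Following Pam3CSK4 priming and 24 hour LipidA transfection, IL-1a secretion was read by HTRF.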
Consider GCCUUUGCUGUUAUACAAUTT against Wdr19, for which the z-score is inactive: 0.581.

With GGCUUAUUAGACGGAUGAATT against Rpl7, the z-score was inactive: 0.858.

As to GGGACUUCUCCCAAUGUUGTT against Ucp2, the z-score is inactive: -1.18.

Regarding GGAGAUAUUCUGGUAUGACTT against Orc1, the z-score was inactive: -1.29.

Take GGAAAAAGACUUCUAUCACTT against Ly6g6g: the z-score is active: -2.03.

On to GCGUGUUCUAUCCUAUUUCTT against Sqle, for which the z-score is inactive: 0.0541.

For GGAGUGUGUGCUUUUAAAATT against Rabggta, the z-score is inactive: 0.248.

Take GGCUCGUCUCAUGUUUUGGTT against Arfrp1: the z-score is inactive: 0.303.

Turning to GGAAGAAGGAAGGUUCAGATT against Strm, the z-score was inactive: -0.581.

On to GAAAUGGGCAGAGAGAUCGTT against Speer3, for which the z-score is inactive: -0.422.

Turning to GGGUGGAGACCAAACAAUATT against Npy1r, the z-score was inactive: 1.21.

As to GGAAGGAACCGUUCUAUAATT against Serpinc1, the z-score is inactive: 0.221.

Consider GCUACAUGGAUUGGAUUAATT against C1rl, for which the z-score was inactive: 0.682.

Regarding GCCAGCUACCGAGUCUAUUTT against Tkt, the z-score is active: 2.8.

With GCUCUACAAGAAUGCUCGGTT against Vps28, the z-score was inactive: 0.748.

In the case of GAGGGCAUAAUGGUUUUUATT against H3c3, the z-score was inactive: 0.624.

Consider GCCUGAAAUGAAAGUUGCUTT against Olfr1136, for which the z-score is inactive: -1.35.

Consider GACAUGGACAUCUACACUATT against H2-Q8, for which the z-score is inactive: 0.106.

Take GGAGGUACAGAUAGAGACUTT against Tcl1b4: the z-score is inactive: 0.13.

Consider CCUGGCUUACAGUACAUGCTT against Adarb1, for which the z-score is inactive: 1.21.

Turning to GCCAUACUUUAAGAGUGUGTT against Nipal2, the z-score is inactive: -0.841.

For GGUCUGACCUGUUUGAUCATT against Fhod3, the z-score is inactive: 0.596.

Consider GGUCUGUUUGACAUUAUACTT against Pdha1, for which the z-score was inactive: -0.22.

As for GGAAACAGCACCUUGUUGATT against Olfr205, the z-score is inactive: 1.55.

Regarding GGCUCUGAUGUUUCUAAAATT against Hdac10, the z-score was inactive: 1.29.

GCCUUUUGUACUAAGGUCCTT against Zfp715: the z-score is inactive: 1.65.

On to GGUUUGUUAGACCAUUACGTT against Cep43, for which the z-score is inactive: 0.356.

Regarding GCUCUCCAGCUAAAUGACCTT against Lsm3, the z-score was inactive: 0.257.

As for CAUCGUUGGAGCUAUAGAUTT against Olfr1098, the z-score was inactive: -1.3.

In the case of GGCUCAUCUCCUAUGACCUTT against Lipe, the z-score is inactive: -0.483.

As to CCAAACGAGGACUAAAAAUTT against Xcl1, the z-score is inactive: -0.488.

As to GGUCAAAAGACAAUGUGGATT against Git2, the z-score is inactive: -1.59.

With GGUCCAUACACCUGCUCUGTT against Opcml, the z-score is inactive: 0.492.

With CCAUAACCGUGGAAAUUUUTT against Galnt3, the z-score is inactive: 0.184.

GCCCAUGUCCGUUACUAUATT against Trim2: the z-score was inactive: -0.61.

Turning to CGUGCACACUCAGAGAGUUTT against Wac, the z-score is inactive: 1.24.

For GGAUGUGGAGUCACUGAUGTT against Ccdc91, the z-score is inactive: -0.863.

In the case of GCUAAAGCGGAAACCUAAGTT against Nelfa, the z-score was inactive: 0.717.

Consider “GCACUGACAAAUCAUGGUATT against 4833439L19Rik”, for which the z-score was inactive: -0.164.

GGUAAUUUGUUUGUGGUGATT against Mtnr1b: the z-score is inactive: -1.13.

Regarding GGGUAGCUGGCGAAUCAAATT against Ptpro, the z-score is inactive: -0.351.

In the case of GCACUGCAUUUGAAUAGCATT against Lrfn5, the z-score was inactive: -1.45.

In the case of GGUUCAGCAAACCUACAAATT against Dpy19l1, the z-score was inactive: 0.943.

In the case of GGAGAUUCUGUGCUACUCCTT against Xrcc3, the z-score is inactive: 0.457.

Consider GGGUCCUACAAAAAAAAAATT against Miip, for which the z-score was inactive: 0.88.

For the sequence CGCUAAUCUUCGAAAACCUTT against Abcc12, the z-score is inactive: -0.998.

As to GCCCUUUGAGACAUUGGAATT against Ciz1, the z-score was inactive: 0.311.

GGAGCAAAAGGGUCAGAGGTT against Socs3: the z-score was inactive: 1.16.

For GCCUUCAUAGUUGGAAACCTT against Olfr172, the z-score was inactive: 0.279.

With CCUUUUAGGGAAAUUUGCATT against Mcm9, the z-score was inactive: 0.651.

As to GCCUAAUGAUUGCAUCCUATT against Gm11437, the z-score was inactive: 1.05.

With GGAAGUUUAUGAUGAUGUCTT against Prpf40b, the z-score was inactive: -0.145.

Consider GGACCUCAACAUCCAGAGATT against Sema6b, for which the z-score was inactive: -0.217.

Consider GGCUUAUUGGCUUGACCAATT against Exoc3l2, for which the z-score is inactive: 0.428.

GCUGGAUGCCGUAUCUAAGTT against Caprin1: the z-score is inactive: 0.54.

In the case of GGGAAUGAAGAACUUCCUCTT against Gapvd1, the z-score is inactive: 0.508.

Turning to GGCAUCUUGACCUUGAAGUTT against Actbl2, the z-score was inactive: 1.3.

Consider GGAUAACUAGCAUUUCCCATT against Ninj2, for which the z-score was inactive: -1.18.

Take GACGAUUCUCUGUUGGUGUTT against Hcrt: the z-score was inactive: 0.577.

On to CGACAAUCGACAAUCGUGCTT against Acta1, for which the z-score was inactive: -0.817.

In the case of GGUCGAUGGUGCUCUGAAGTT against Spry3, the z-score is inactive: 0.0297.

Regarding CCAACGACUAAGAGAAGAGTT against Tdrp, the z-score is inactive: 0.466.

Regarding GAUACUUGGCUCCUAGAAGTT against Olfr803, the z-score is inactive: -1.22.

For the sequence GGCUGCUACUGACAGAUUATT against Fgd6, the z-score is inactive: 0.162.

GGCCCUCAAACAGUGCAAATT against Chchd10: the z-score was active: 2.09.

In the case of GCUCUUCUGUCCAAAGAUGTT against Pim3, the z-score was inactive: -0.235.

As to GCUACAUCACAUGCAGUUCTT against Brinp2, the z-score is inactive: -1.1.

For the sequence GCCAGAAUCAGAUCUCUCGTT against Amigo1, the z-score is inactive: 1.49.

Turning to CCUACUACUUCGUUAUCCGTT against Chrna2, the z-score is inactive: 0.447.

Turning to GGAGAAAUUCAAAGAGAGUTT against Gas2, the z-score is inactive: 0.487.

Consider GCCUUUGUACAAUGACUAUTT against Prpf38a, for which the z-score was inactive: -0.127.

With CCAGCUCAUUCAAGAGCAATT against Tmc6, the z-score is inactive: -0.163.

For the sequence GGCAAAAACUACGUGCACCTT against Mapk7, the z-score was inactive: 0.985.

As to CGGUGAUCAAUCAUUGUAATT against Tas2r113, the z-score is active: -2.16.

As to GGCACAAACAUGUGUUCUATT against Vmn1r56, the z-score was inactive: 0.584.

For the sequence GAAAAGUGCACCAUCAGCCTT against Ly6g5b, the z-score was active: -2.27.

Take “GAUGCUCUCUGCUCUGAGATT against C030016D13Rik”: the z-score is inactive: -0.0555.

GGAUGCCUGAGUGCUACAUTT against Lsm4: the z-score was inactive: -0.837.

For the sequence CGACCACAGAUAUAAAUUUTT against Tbx5, the z-score is inactive: -0.344.

With GGUGUCCAGCAUUUACAUCTT against Agtr2, the z-score is inactive: 0.778.

As for GGGAGCAUCAUGUGAAGAATT against Dnajc5b, the z-score was inactive: 0.173.

As to GGGAACUUUAGCUUAAAUUTT against Lypd6, the z-score is inactive: 0.135.

As for GCACAGGUAAUUUGUAAUGTT against Btbd3, the z-score is inactive: -0.488.

Take CCGUGUCAUCUUGAAAAUUTT against Mtrr: the z-score is inactive: -0.782.

In the case of GGAAAAGGAGGUGGUACUGTT against Acan, the z-score is inactive: 0.743.

As to GCUGAACGAUGACUAUCCCTT against Cryba4, the z-score is active: 2.2.

As to GCAGUCUUUUGGAUAGGUUTT against Ccni, the z-score is inactive: 0.86.

In the case of GUCACUAUUAAGACACUUATT against Nudcd3, the z-score was inactive: 0.157.

Regarding CGCGAGAAGACGAAUUCUCTT against Pknox1, the z-score was inactive: 1.29.

For GCUCUCUCUCAUUGAUCUCTT against Olfr697, the z-score is inactive: -1.63.

Consider GGUGAAAGCUGUUAUCGAATT against Il25, for which the z-score is inactive: 0.359.

GGAAGUGGACAUCACCAUGTT against Sh3bgrl2: the z-score is inactive: -1.14.

With GGAAGGUCUGCUAUAAGUATT against Ifi30, the z-score was inactive: 0.904.

On to GGGCCAAAGGAAACAGCACTT against Slc24a5, for which the z-score was inactive: -0.854.

Turning to GCUUCGAUCGCUGGAAUGUTT against Dctn4, the z-score is inactive: 1.33.

Turning to CCAGGAUCCUUCUAAGUGCTT against Tes, the z-score was inactive: -0.594.

With CCAUCAUCCCUAGAUACCCTT against Muc20, the z-score was inactive: -1.31.

With GGACUUUACAAUAAAACAGTT against Dkk4, the z-score was active: -2.2.

GGCCAAGAAACAUGCCCUATT against Pbx2: the z-score was inactive: 0.168.

Take CCCUGAUUCAUACGACUGATT against Ctdp1: the z-score was inactive: -0.21.

Turning to GGUGUUUACUUCCUCAGAATT against Slc9b2, the z-score was inactive: -0.373.

With GGAACAGAACCACUACCUGTT against Slc39a5, the z-score was inactive: 1.39.

In the case of GGCCGAAACUUCGUUUAUATT against Med17, the z-score is inactive: -1.95.

In the case of GGUGUAUGGACCAUUUUAUTT against Tcp11l2, the z-score was inactive: 0.221.

Take GGACAAGUUUCAGUGACCCTT against Zdhhc9: the z-score is inactive: -1.87.

GGAACAGGCCACCAUUGAATT against Mrps7: the z-score is inactive: 1.44.

Turning to GGCUACGAGUCCUCUGAAGTT against Saraf, the z-score is inactive: -1.71.

With GGAGACACUCGUCCUUUAUTT against Cyp20a1, the z-score was inactive: -1.27.
